Experimental data reported in PubChem BioAssay AID1347075 (National Center for Advancing Translational Sciences (NCATS), 2019).
Among all 400,000 compounds or so, about 5,500 (1.4%) were called active. Inconclusive means that the source gave no clear call. Such entries were picked first, then a sample of the others. The call rests on the fitted dose curve; in most records, active means well fitted cell-killing curve with a large enough effect; inconclusive means small, poorly fitted or top-dose-only effect, or effect the other way; inactive means flat fitted curve, though single readings scatter. Potencies of inconclusive entries are doubtful fits and often do not repeat.

Assay: qHTS assay for MDR1-selective chemotherapeutics: Primary screen using the parental adenocarcinoma cell KB-3-1; further: nearly all actives have a fitted effect of over 60% in size
Details: KB-3-1 viability, CellTiter-Glo ATP luminescence, 72 h; activity change, negative = cytotoxic: at 46.1 µM (top of the series)
In short: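 Here the drug-naive KB-3-1 line serves as comparator for MDR sub-line selectivity; cells received compound titrations, 72 h at 37 °C, then CellTiter-Glo readout.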
On the % scale 0 is the no-effect control and ±100 the full control effect; potency means the concentration at half of the fitted maximal effect.

Compound	Potency	activity change, negative = cytotoxic
CCc1ccc(CNC(=O)COc2cc(=O)n(CC)c3ccccc23)cc1	inconclusive: 32.6 µM [cytotoxic, partial curve, poor fit]	–
O=C1[C@H](Cc2ccccc2)NCCCC[C@H](c2ccco2)N1Cc1ccccc1	inconclusive: 18.4 µM [cytotoxic, single point]	–
O=C(c1ccccc1)C1CCN(C(=O)c2ccc(Cl)cc2)CC1	inactive	–
O=C(CN1CCN(c2ccc(F)cc2)CC1)Nc1ccccc1C(=O)NCCc1ccccc1	inconclusive: 25.9 µM [cytotoxic, single point]	–
COc1ccc(C(=O)NN2CCOCC2)cc1[N+](=O)[O-]	inconclusive: 14.6 µM [rising, partial curve, poor fit]	–
Cc1cc(C(=O)NC2CCCc3c2cnn3-c2cccc(C)c2C)n(C)n1 (centres undefined)	inactive	–
CCOC(=O)C(=CNc1cc(C)nn1-c1ccc(Cl)cc1)C(=O)OCC	inactive	–
COc1cccc(CNc2nc3cc(-c4ccsc4)sc3c(=O)n2C)c1OC	active: 9.2 µM	–
CC(C)C[C@@H](CN1CCC[C@H]1CN1C(=O)C(=O)NC[C@@H]1Cc1ccccc1)N1C[C@H](Cc2ccc(O)cc2)N(CC2CCCCCC2)C(=O)C1=O	inconclusive: 29.1 µM [cytotoxic, single point]	–
O=C(c1ccccc1)N1CCN=C1SCc1ccc([N+](=O)[O-])cc1	inconclusive: 29.1 µM [cytotoxic, single point]	–
O=C(CSc1nc2ccccc2o1)N/N=C/c1ccccc1	–	inconclusive: 7.17%
C#CCN(C[C@@H]1[C@@H](OC(=O)NC2CC2)[C@@H](OC(=O)NC2CC2)Cn2c(=O)ccc(=O)n21)S(=O)(=O)c1ccc(C)cc1	inconclusive: 29.1 µM [cytotoxic, single point]	–
O=C(N/N=C/c1cc([N+](=O)[O-])ccc1O)/C(=C\c1cccs1)NC(=O)c1ccccc1	inconclusive: 23.1 µM [cytotoxic, single point]	–
Cc1ccc2c(CNCc3ccccc3)cc(=O)oc2c1	active: 5.17 µM	–
CCCCN(C)C(=O)C1CCC(CNS(=O)(=O)c2ccc3c(c2)CC(C)N3C(=O)C2CC2)CC1 (centres undefined)	inconclusive: 23.1 µM [cytotoxic, single point]	–
COc1cccc(NC(=O)c2cccc(N3C(=O)C4CCC(C)CC4C3=O)c2)c1 (centres undefined)	inconclusive: 20.6 µM [rising, single point]	–
COc1ccccc1C(=O)Nc1nc2nc(-c3ccccc3)cc(=O)n2[nH]1	inactive	–
Cc1ccc(S(=O)(=O)N2CCOC23CCN(S(=O)(=O)c2c(C)cc(C)cc2C)CC3)cc1	inconclusive: 20.6 µM [cytotoxic, single point]	–
C=C1C(=O)[C@]23C[C@H]1CCC2[C@@]1(C)C(C[C@@H]3O)[C@](C)(C(=O)O)CC[C@@H]1O (some centres undefined)	inconclusive: 29.1 µM [cytotoxic, single point]	–
O=C1Nc2ccccc2/C1=C/c1ccccc1F	inactive	–
O=C1NC[C@@H](CCCCN2C[C@H](Cc3ccc(O)cc3)N(CCc3ccc(O)cc3)C(=O)C2=O)N(CC2CCCCC2)C1=O	inconclusive: 25.9 µM [rising, single point]	–
Cc1nc2ccccc2c2oc(C(=O)N3CC(C)CC(C)C3)cc12 (centres undefined)	inactive	–

Entries of single compounds from above.
COc1cccc(NC(=O)c2cccc(N3C(=O)C4CCC(C)CC4C3=O)c2)c1 (centres undefined) in the list: Potency: inconclusive: 20.6 µM [rising, single point]
O=C1NC[C@@H](CCCCN2C[C@H](Cc3ccc(O)cc3)N(CCc3ccc(O)cc3)C(=O)C2=O)N(CC2CCCCC2)C1=O in the list: Potency: inconclusive: 25.9 µM [rising, single point]

Further structures

Compound	Potency	activity change, negative = cytotoxic
COC(=O)[C@@]1(Cc2ccccc2)[C@@H]2C(=CC(=O)[C@H]2CC(=O)C(=O)N(C)C)CN1C(=O)c1ccccc1	active: 20.6 µM	–
COc1ccc(/C=N/N2C(=N)SCC2=O)cc1	active: 7.31 µM	–
COc1ccc(Cl)cc1NC(=O)CSc1ncnc2c1oc1ccccc12	inactive	–
O=C(Nc1ccc(-c2noc(CCc3ccccc3)n2)cc1)c1cccnc1	inconclusive: 29.1 µM [cytotoxic, single point]	–
Cc1cccc(Nc2cc(C)c3c(O)cccc3n2)c1C	inconclusive: 23.1 µM [cytotoxic, single point]	–
O=C(c1ccc(CNS(=O)(=O)c2cccc(C(F)(F)F)c2)cc1)N1CCOCC1	inactive	–
Cc1ccc(-n2c(C)cc(C(=O)CSc3n[nH]c(N)n3)c2C)cc1	active: 20.6 µM	–
COC(=O)c1sccc1NC(=O)CSc1ccccc1NS(=O)(=O)c1ccc(Br)cc1	active: 20.6 µM	–
COc1cccc(/C=N/NC(=O)c2nc(-c3ccccc3)cc(-c3ccccc3)n2)c1O	inconclusive: 23.1 µM [cytotoxic, partial curve, poor fit]	–
CC(NC(=O)c1cccnc1)C(c1cccs1)N1CCN(C)CC1 (centres undefined)	inactive	–
Cc1cc(-c2c(C)[nH]n(-c3ccc(Cl)cc3)c2=O)n[nH]1	inconclusive: 18.4 µM [cytotoxic, single point]	–
O=C(Nc1ncc(Cc2cccc(C(F)(F)F)c2)s1)C1CCCO1 (centres undefined)	inconclusive: 20.6 µM [cytotoxic, single point]	–
Cc1ccc(OCC(=O)N/N=C\c2c(C)n(C)c3ccccc23)c([N+](=O)[O-])c1	inconclusive: 29.1 µM [cytotoxic, single point]	–
Cc1c(CNCc2ccc(OC(C)C)cc2)c(C(=O)O)c(C)n1Cc1ccc(Cl)cc1	inconclusive: 0.206 µM [cytotoxic, full curve, poor fit]	–
COc1ccccc1NC(=S)NCCc1ccc(F)cc1	inactive	–
CCOc1cc(/C=N/NC(=O)c2ccc(CN3CCOCC3)cc2)ccc1OCc1ccccc1	inconclusive: 29.1 µM [cytotoxic, single point]	–
CCOC(=O)c1cccc(NC(=O)c2cc(S(=O)(=O)N3CCCCCC3)cn2C)c1	inactive	–
COc1ccc(CNc2oc(-c3ccc(COc4ccc(Cl)cc4)o3)nc2C#N)cc1	inactive	–
O=C(NC1CCN(Cc2ccc(Cl)cc2Cl)CC1)c1ccccc1	inactive	–
CC1CCCC(NC(=O)COC(=O)CCSc2ccccc2)C1C (centres undefined)	inactive	–
COc1cc(C(=O)N2CCN(Cc3ccc4c(c3)OCO4)CC2)c([N+](=O)[O-])cc1OC	inconclusive: 10.3 µM [cytotoxic, partial curve, poor fit]	–
COc1ccc(-c2cc(-c3cccs3)c(C#N)c(SCC(=O)NCc3ccccc3OC)n2)cc1	inconclusive: 20.6 µM [cytotoxic, single point]	–
